{"source": "patent US20110229482A1", "about": "“Method of inhibiting infection by HCV, other flaviviridae viruses, and any other virus that complexes to low density lipoprotein or to very low density lipoprotein in blood by preventing viral entry into a cell” (priority 2000, published 2011)", "tested_on": "HCV", "assay_type": "in vivo", "settings": "Tg mouse pretreated with 0.5 mg, then inoculated with HCV", "data": [{"smiles": "CC(C)c1c(C(=O)Nc2ccccc2)c(-c2ccccc2)c(-c2ccc(F)cc2)n1CC[C@@H](O)C[C@@H](O)CC(=O)O", "note": "[atorvastatin]", "values": [{"measurement": "Endocytosis of HCV by hepatocytes (ISH for HCV RNA)", "value": "increased endocytosis of HCV"}]}]}
